These are yes or no findings as the source states them, for the method shown. In cells and extracts the contact can be indirect. Binding can be weak; no strength is given. Where a sequence is shown, tags or fusion partners need not be part of it.
Target: GST-Eps15R EH2 (aa 254-362)
Assay: pull-down; GST-tagged EH domains immobilised on beads, incubated with lysates from EGFP-Numb expressing HEK293T cells; Western blot; only the target purified

- binding: binds
B1: EGFP-Numb (protein, UniProt P49757 1-651)
chain: MNKLRQSFRRKKDVYVPEASRPHQWQTDEEGVRTGKCSFPVKYLGHVEVDESRGMHICEDAVKRLKAERKFFKGFFGKTGKKAVKAVLWVSADGLRVVDEKTKDLIVDQTIEKVSFCAPDRNFDRAFSYICRDGTTRRWICHCFMAVKDTGERLSHAVGCAFAACLERKQKREKECGVTATFDASRTTFTREGSFRVTTATEQAEREEIMKQMQDAKKAETDKIVVGSSVAPGNTAPSPSSPTSPTSDATTSLEMNNPHAIPRRHAPIEQLARQGSFRGFPALSQKMSPFKRQLSLRINELPSTMQRKTDFPIKNAVPEVEGEAESISSLCSQITNAFSTPEDPFSSAPMTKPVTVVAPQSPTFQANGTDSAFHVLAKPAHTALAPVAMPVRETNPWAHAPDAANKEIAATCSGTEWGQSSGAASPGLFQAGHRRTPSEADRWLEEVSKSVRAQQPQASAAPLQPVLQPPPPTAISQPASPFQGNAFLTSQPVPVGVVPALQPAFVPAQSYPVANGMPYPAPNVPVVGITPSQMVANVFGTAGHPQAAHPHQSPSLVRQQTFPHYEASSATTSPFFKPPAQHLNGSAAFNGVDDGRLASADRHTEVPTGTCPVDPFEAQWAALENKSKQRTNPSPTNPFSSDLQKTFEIEL

From publication PMC5836524
